Results are given in words; binding and its absence hold for the method and conditions named. A result given as binding can be weak or reduced; the word gives no strength. Where a sequence is shown, tags or fusion partners need not be part of it. For some of these results: Binding seen in cells or lysates may run through a third protein.
What was measured:
[1] = target: T1, Flag-tagged full-length Tespa1 (FL) (mouse) (UniProt Q3U132); experiment: co-IP; HEK293 cells co-transfected with Flag-tagged Tespa1 (FL or mutants) and the HA-tagged IP3R1 construct; IP with anti-Flag beads or with anti-HA antibodies plus protein G beads; blots with anti-Flag and anti-HA
T1 sequence: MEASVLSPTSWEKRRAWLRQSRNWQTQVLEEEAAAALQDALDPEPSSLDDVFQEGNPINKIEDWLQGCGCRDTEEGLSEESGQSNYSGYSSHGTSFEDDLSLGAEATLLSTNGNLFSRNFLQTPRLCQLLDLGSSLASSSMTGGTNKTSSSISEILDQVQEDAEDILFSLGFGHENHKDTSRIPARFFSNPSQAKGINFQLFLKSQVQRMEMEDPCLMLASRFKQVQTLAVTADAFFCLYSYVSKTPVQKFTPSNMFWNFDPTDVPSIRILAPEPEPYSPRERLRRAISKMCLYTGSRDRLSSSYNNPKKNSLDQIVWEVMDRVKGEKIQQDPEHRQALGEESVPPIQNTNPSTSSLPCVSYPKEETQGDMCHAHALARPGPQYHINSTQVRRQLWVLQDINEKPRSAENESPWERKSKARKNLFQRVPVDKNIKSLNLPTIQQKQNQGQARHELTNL

The chains behind the UniProt entries cited, without tags or fusion partners. Where a name states a change or a piece, a line headed by the entry shows the natural chain unless it says otherwise.
UniProt P11881: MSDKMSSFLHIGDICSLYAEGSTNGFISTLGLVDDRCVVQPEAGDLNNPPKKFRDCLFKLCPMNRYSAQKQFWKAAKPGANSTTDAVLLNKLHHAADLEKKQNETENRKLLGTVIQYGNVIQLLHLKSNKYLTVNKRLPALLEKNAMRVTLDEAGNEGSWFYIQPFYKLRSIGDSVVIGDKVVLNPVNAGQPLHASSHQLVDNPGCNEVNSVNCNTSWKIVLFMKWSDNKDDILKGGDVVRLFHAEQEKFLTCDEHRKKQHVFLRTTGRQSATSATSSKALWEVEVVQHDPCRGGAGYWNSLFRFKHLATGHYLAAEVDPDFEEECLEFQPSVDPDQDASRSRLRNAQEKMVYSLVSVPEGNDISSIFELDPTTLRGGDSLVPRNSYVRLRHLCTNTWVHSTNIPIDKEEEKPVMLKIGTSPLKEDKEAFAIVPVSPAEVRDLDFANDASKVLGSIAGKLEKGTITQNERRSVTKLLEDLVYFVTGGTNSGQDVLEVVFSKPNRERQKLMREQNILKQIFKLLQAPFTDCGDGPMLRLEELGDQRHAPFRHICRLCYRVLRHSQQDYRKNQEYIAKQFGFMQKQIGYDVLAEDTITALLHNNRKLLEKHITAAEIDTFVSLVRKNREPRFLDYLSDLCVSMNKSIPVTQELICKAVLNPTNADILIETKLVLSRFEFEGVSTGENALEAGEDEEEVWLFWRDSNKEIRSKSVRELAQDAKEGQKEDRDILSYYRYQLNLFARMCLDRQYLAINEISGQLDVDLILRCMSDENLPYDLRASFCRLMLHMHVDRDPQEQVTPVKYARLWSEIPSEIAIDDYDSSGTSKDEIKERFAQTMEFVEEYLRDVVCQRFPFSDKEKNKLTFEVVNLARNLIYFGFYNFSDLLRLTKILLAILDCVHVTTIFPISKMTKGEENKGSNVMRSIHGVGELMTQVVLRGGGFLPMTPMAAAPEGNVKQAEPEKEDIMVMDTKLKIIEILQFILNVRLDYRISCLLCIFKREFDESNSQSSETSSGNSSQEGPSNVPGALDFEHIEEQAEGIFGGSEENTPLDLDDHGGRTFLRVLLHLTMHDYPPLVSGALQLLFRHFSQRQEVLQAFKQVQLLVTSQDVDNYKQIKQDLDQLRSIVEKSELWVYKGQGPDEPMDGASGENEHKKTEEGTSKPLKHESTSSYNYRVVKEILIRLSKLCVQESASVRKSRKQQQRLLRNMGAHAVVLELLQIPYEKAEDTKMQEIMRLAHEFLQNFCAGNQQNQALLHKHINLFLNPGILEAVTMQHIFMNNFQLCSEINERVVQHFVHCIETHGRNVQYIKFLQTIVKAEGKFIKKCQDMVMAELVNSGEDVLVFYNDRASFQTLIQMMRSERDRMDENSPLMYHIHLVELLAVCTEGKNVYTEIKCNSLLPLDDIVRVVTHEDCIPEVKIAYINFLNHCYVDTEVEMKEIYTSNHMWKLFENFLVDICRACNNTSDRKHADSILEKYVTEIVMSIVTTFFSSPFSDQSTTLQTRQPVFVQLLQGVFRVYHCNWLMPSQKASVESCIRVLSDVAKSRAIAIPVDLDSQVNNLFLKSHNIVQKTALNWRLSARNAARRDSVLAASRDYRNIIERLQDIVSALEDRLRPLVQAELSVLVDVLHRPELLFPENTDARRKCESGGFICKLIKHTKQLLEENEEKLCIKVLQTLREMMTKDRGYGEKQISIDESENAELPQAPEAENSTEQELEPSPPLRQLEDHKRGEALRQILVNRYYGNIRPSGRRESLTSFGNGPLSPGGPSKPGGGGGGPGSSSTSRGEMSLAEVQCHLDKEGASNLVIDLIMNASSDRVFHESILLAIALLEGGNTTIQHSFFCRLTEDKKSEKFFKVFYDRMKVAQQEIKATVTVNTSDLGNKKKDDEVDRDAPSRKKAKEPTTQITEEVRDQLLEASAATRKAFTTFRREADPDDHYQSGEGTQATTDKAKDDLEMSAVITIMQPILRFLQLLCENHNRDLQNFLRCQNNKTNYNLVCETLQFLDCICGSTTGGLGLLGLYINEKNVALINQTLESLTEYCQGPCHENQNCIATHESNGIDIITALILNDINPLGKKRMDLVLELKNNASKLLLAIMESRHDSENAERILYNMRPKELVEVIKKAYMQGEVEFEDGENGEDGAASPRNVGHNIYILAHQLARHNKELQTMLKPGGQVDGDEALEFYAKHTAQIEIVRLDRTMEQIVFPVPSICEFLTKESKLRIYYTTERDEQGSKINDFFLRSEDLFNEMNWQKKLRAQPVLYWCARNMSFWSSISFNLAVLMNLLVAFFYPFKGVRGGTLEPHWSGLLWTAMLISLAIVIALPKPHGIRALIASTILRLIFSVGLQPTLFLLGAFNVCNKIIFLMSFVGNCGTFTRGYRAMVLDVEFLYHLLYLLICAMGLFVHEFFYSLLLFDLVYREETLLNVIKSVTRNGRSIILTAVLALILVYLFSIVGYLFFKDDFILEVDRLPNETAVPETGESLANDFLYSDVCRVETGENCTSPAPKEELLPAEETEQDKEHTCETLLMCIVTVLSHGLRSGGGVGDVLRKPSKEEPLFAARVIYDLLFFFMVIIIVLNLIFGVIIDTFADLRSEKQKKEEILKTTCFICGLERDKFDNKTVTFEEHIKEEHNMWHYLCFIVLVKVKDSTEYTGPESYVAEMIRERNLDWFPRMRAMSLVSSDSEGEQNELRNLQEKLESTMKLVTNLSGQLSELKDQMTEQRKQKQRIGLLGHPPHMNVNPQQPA
UniProt P19174: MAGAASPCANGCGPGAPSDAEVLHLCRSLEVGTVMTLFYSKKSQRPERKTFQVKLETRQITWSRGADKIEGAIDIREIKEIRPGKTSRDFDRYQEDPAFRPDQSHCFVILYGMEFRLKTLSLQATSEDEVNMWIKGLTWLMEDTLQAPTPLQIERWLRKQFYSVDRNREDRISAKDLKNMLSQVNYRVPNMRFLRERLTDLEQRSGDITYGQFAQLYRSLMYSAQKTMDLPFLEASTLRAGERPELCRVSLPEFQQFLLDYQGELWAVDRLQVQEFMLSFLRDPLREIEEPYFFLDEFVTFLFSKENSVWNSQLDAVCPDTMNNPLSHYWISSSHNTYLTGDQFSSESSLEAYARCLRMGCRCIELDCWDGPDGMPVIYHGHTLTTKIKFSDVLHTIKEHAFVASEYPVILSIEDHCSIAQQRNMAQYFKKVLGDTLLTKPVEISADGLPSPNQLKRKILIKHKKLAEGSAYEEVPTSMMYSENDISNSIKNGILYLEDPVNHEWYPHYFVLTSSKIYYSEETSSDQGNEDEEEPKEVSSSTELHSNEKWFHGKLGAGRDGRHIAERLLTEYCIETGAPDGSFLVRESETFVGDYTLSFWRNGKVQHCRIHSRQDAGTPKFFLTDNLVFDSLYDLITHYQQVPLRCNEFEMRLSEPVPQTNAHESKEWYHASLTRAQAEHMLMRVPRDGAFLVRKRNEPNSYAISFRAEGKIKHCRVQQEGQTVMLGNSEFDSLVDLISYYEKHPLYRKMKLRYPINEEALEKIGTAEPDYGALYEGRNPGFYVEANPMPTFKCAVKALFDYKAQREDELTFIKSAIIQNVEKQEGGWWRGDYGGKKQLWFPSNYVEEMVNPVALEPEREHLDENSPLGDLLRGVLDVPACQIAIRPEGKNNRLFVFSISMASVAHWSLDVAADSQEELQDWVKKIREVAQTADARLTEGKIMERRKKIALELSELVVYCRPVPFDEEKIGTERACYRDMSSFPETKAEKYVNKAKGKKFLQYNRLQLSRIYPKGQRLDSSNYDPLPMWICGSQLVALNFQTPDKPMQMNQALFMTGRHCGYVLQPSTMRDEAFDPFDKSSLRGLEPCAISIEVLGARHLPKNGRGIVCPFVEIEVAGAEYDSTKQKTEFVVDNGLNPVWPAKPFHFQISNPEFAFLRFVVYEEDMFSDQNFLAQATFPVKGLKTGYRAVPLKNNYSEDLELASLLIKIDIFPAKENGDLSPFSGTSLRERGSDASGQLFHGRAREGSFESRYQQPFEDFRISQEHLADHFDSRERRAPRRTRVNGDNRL

[2] = target: T1, Flag-tagged full-length Tespa1 (FL) (mouse); experiment: co-IP; HEK293 cells co-transfected with Flag-tagged Tespa1 and HA-tagged PLC-γ1 or its mutants; NP-40 lysis buffer (50 mM Tris pH 7.4, 150 mM NaCl, 1% NP-40); anti-Flag beads 4 h at 4 °C; blots with anti-Flag and anti-HA
[3] = target: T2, Tespa1 (two-hybrid fusion) (mouse) (UniProt Q3U132); experiment: two-hybrid; yeast two-hybrid system; Tespa1 against cloned signalling molecules of the LAT signalosome
T2 sequence: T1 sequence

| binding [2] | Substance | further results |
| --- | --- | --- |
|  | HA-tagged IP3R1-N (amino acids 1–610) (from UniProt P11881) (domain or fragment) | binding [1]: binds |
| binds | PLC-γ1-ΔX (from UniProt P19174) (enzyme) |  |
| binds | PLC-γ1-ΔY (from UniProt P19174) (enzyme) |  |
|  | X catalytic domain of PLC-γ1 (two-hybrid fusion) (domain or fragment) | binding [3]: binds |

From paper PMC5472764
